Among the data in PMC8325298 are binding values, retold here.

By UniProt entry, the sequences of proteins in these tests, tags left out.
UniProt O95782: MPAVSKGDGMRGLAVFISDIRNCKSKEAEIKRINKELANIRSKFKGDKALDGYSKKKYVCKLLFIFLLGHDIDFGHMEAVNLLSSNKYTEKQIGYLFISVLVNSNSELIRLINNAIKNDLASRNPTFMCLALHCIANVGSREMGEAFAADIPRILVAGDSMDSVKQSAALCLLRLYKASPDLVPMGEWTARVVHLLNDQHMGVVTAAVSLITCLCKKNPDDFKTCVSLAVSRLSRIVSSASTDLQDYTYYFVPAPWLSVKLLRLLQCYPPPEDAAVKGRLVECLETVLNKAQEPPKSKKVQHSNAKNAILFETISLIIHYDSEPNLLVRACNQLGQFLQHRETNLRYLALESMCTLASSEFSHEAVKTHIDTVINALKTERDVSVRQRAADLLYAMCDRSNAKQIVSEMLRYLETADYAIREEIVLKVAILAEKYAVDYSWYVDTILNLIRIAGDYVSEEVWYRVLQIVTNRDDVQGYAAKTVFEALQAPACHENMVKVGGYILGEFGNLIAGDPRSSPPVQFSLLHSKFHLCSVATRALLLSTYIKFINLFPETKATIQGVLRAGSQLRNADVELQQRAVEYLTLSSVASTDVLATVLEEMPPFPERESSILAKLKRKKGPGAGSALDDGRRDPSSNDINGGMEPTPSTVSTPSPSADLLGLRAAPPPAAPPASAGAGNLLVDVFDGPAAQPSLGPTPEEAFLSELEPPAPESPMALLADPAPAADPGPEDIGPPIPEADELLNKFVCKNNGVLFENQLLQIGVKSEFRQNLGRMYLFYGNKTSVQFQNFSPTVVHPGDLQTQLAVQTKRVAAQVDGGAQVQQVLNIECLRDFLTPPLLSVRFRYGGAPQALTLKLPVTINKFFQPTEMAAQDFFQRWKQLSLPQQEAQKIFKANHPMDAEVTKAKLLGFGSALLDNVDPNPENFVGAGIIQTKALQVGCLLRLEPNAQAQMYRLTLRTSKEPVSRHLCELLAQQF

The target of experiment [1] is T1, MYO1F (bait of the immunoprecipitation followed by mass spectrometry) (UniProt O00160).
T1 sequence: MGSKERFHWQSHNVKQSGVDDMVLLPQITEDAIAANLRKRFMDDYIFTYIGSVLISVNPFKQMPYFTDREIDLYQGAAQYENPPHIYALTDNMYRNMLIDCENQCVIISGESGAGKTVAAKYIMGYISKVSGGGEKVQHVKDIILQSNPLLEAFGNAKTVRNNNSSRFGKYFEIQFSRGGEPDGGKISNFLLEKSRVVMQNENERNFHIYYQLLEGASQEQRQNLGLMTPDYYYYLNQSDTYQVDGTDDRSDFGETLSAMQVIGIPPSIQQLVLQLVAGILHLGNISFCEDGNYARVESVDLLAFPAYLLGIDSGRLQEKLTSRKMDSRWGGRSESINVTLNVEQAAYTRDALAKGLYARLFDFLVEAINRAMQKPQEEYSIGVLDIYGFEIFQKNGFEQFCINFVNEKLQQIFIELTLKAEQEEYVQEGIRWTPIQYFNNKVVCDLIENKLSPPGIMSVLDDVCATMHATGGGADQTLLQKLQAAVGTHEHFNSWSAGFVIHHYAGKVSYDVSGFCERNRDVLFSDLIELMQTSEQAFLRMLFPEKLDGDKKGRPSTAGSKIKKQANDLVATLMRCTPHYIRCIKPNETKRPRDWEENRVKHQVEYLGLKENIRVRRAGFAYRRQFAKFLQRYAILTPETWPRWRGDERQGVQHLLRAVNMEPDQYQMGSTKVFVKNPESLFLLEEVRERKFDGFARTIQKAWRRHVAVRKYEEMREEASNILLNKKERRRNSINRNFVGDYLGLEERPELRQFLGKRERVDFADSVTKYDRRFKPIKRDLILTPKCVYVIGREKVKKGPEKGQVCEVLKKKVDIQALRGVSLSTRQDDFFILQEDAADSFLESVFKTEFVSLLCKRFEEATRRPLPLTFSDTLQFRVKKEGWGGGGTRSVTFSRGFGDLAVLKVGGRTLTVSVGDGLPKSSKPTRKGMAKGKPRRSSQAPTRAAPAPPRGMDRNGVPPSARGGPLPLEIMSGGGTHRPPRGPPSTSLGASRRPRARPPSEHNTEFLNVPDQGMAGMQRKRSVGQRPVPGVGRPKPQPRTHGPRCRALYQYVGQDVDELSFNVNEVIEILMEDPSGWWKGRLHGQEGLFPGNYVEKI
The experiment can be described thus: affinity purification with mass spectrometry; immunoprecipitation of MYO1F followed by mass spectrometry.

The target of experiment [2] is T2, TAGAP (bait of the GST pulldown assay) (UniProt Q8N103).
T2 sequence: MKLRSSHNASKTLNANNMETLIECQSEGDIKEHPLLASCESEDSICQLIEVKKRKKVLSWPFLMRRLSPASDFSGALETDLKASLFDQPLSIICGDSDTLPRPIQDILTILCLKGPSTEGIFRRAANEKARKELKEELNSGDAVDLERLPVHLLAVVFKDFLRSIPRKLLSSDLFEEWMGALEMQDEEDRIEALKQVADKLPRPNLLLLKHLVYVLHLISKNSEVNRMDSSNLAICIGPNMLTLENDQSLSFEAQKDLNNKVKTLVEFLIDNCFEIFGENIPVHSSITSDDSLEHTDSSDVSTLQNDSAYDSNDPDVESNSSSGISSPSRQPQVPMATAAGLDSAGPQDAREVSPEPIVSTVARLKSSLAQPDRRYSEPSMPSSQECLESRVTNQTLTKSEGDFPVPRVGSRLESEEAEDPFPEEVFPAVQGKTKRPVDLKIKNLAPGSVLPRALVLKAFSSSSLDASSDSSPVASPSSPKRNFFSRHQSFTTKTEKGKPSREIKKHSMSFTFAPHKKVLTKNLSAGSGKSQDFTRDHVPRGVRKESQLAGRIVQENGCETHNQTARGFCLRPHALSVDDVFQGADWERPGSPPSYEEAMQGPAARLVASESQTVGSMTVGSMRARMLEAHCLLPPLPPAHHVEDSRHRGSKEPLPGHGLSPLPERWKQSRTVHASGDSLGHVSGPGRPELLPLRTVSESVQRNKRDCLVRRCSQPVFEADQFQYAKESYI
The experiment can be described thus: affinity purification with mass spectrometry; GST pulldown assay and mass spectrometry to identify TAGAP-interacting proteins.

These are yes or no findings as the source states them, for the method shown. Binding seen in cells or lysates may run through a third protein. These calls come from enrichment with a bait or labelling near it, and not all partners need be listed. For some of these results: Where a sequence is shown, tags or fusion partners need not be part of it.

For “β-tubulin (hit of the MYO1F immunoprecipitation with mass spectrometry)”, in experiment [1], the binding entry is “binds”.
On the same count and under the same terms, for “AP2A1 (hit of the MYO1F immunoprecipitation with mass spectrometry) (from UniProt O95782 1-977)” the value was “binds”; for “α-tubulin (hit of the MYO1F immunoprecipitation with mass spectrometry)”, “binds”.

B1: Myosin 1f (MYO1F), hit of the TAGAP GST pulldown (protein, UniProt O00160 1-1098)
chain: MGSKERFHWQSHNVKQSGVDDMVLLPQITEDAIAANLRKRFMDDYIFTYIGSVLISVNPFKQMPYFTDREIDLYQGAAQYENPPHIYALTDNMYRNMLIDCENQCVIISGESGAGKTVAAKYIMGYISKVSGGGEKVQHVKDIILQSNPLLEAFGNAKTVRNNNSSRFGKYFEIQFSRGGEPDGGKISNFLLEKSRVVMQNENERNFHIYYQLLEGASQEQRQNLGLMTPDYYYYLNQSDTYQVDGTDDRSDFGETLSAMQVIGIPPSIQQLVLQLVAGILHLGNISFCEDGNYARVESVDLLAFPAYLLGIDSGRLQEKLTSRKMDSRWGGRSESINVTLNVEQAAYTRDALAKGLYARLFDFLVEAINRAMQKPQEEYSIGVLDIYGFEIFQKNGFEQFCINFVNEKLQQIFIELTLKAEQEEYVQEGIRWTPIQYFNNKVVCDLIENKLSPPGIMSVLDDVCATMHATGGGADQTLLQKLQAAVGTHEHFNSWSAGFVIHHYAGKVSYDVSGFCERNRDVLFSDLIELMQTSEQAFLRMLFPEKLDGDKKGRPSTAGSKIKKQANDLVATLMRCTPHYIRCIKPNETKRPRDWEENRVKHQVEYLGLKENIRVRRAGFAYRRQFAKFLQRYAILTPETWPRWRGDERQGVQHLLRAVNMEPDQYQMGSTKVFVKNPESLFLLEEVRERKFDGFARTIQKAWRRHVAVRKYEEMREEASNILLNKKERRRNSINRNFVGDYLGLEERPELRQFLGKRERVDFADSVTKYDRRFKPIKRDLILTPKCVYVIGREKVKKGPEKGQVCEVLKKKVDIQALRGVSLSTRQDDFFILQEDAADSFLESVFKTEFVSLLCKRFEEATRRPLPLTFSDTLQFRVKKEGWGGGGTRSVTFSRGFGDLAVLKVGGRTLTVSVGDGLPKSSKPTRKGMAKGKPRRSSQAPTRAAPAPPRGMDRNGVPPSARGGPLPLEIMSGGGTHRPPRGPPSTSLGASRRPRARPPSEHNTEFLNVPDQGMAGMQRKRSVGQRPVPGVGRPKPQPRTHGPRCRALYQYVGQDVDELSFNVNEVIEILMEDPSGWWKGRLHGQEGLFPGNYVEKI
With B1, the binding result in experiment [2] is “binds”.
